Assay results published in the supplement of paper PMC12823440, “Inhibitors supercharge kinase turnover through native proteolytic circuits” (Nature, 2025).
Structures can show the parent of a compound that is named as a salt. This is one part of the list. Hit calls seldom repeat between salt and free forms of one compound.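 In K562 cells expressing nanoluciferase-fused kinases, luminescence was recorded at 4 h intervals between 2 and 18 h, normalized as percent of control with DMSO at 100% and a positive control at 0%. A significant (2 sigma) signal drop marks a time point as decreased. The authors' rule for a hit is not shown and takes in more than the number of time points.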

Amino acid sequences for entries named in this document (tags omitted). A change or cut given only in a name is not applied to a line headed by its entry.
UniProt P14616: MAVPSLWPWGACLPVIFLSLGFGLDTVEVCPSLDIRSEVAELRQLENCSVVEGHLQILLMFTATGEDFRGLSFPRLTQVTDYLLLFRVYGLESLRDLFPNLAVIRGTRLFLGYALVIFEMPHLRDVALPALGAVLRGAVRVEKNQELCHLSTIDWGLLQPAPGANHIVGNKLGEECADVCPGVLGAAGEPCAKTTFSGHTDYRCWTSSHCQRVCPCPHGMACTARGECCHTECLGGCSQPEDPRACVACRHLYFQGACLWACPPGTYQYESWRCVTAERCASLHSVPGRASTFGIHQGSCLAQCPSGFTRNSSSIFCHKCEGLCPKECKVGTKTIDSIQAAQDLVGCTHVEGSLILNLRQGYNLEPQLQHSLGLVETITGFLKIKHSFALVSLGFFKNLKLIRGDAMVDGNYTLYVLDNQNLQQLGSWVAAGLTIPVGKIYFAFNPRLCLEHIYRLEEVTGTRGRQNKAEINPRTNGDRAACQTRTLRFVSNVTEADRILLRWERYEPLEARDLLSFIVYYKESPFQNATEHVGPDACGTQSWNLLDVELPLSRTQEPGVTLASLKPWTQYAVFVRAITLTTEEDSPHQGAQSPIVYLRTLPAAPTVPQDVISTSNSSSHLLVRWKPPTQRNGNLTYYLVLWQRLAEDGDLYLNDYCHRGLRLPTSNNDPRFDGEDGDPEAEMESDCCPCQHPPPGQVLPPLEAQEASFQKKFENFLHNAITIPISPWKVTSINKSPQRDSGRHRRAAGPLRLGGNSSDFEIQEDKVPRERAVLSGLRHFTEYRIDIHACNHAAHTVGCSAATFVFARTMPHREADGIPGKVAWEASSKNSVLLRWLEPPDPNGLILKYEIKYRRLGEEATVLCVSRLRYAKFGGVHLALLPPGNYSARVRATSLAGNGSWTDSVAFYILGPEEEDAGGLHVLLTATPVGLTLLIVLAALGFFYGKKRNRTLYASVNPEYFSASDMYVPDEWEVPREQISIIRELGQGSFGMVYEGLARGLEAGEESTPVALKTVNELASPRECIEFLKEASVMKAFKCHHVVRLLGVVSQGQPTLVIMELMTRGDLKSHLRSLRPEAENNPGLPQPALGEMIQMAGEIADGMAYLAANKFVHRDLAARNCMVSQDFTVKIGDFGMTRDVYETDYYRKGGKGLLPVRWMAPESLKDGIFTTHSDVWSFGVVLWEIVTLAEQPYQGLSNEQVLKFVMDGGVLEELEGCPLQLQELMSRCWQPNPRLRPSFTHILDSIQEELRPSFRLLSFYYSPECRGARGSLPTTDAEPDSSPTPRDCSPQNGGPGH

target: INSRR (UniProt P14616); experiment: kinase-Nluc reporter destabilization hit call (1 = scored as downregulated) (binary); higher = compound decreases kinase abundance; settings: K562; 2-18 h

kinase-Nluc reporter destabilization hit call, inactive:
Cc1[nH]c(/C=C2\C(=O)Nc3ccccc32)c(C)c1CCC(=O)O [(Z)-Orantinib] (10 µM) 0
NC(=O)c1ccc(-c2nc(-c3ccc4c(c3)OCCO4)c(-c3ccccn3)[nH]2)cc1 (10 µM) 0
CCNc1nc(Nc2cc(F)c(C(=O)N3CCOCC3)cc2OC)ncc1C(F)(F)F [GNE-7915 (tosylate)] (10 µM) 0
Cc1cc(O)c2c(c1)C(=O)c1cc(O)cc(O)c1C2=O [Emodin] (10 µM) 0
Cc1ccc(C(=O)Nc2ccc(Oc3cc4cnn(C)c4cc3-c3cn[nH]c3)c(F)c2)c(=O)n1-c1ccc(F)cc1 [Merestinib dihydrochloride] (2.5 µM) 0
C=CC(=O)Nc1cc(C)ccc1Nc1nc(Nc2cc(OC)ncc2C)ncc1C(F)(F)F (10 µM) 0
Oc1cc(O)c2cc(O)c(-c3cc(O)c(O)c(O)c3)[o+]c2c1 [Delphinidin (chloride)] (10 µM) 0
O=C1NC(=O)/C(=C\c2cccc(C(F)(F)F)c2)S1 (2.5 µM) 0
Cc1nc2sccn2c(=O)c1CCN1CCC(=C(c2ccccc2)c2ccc(F)cc2)CC1 (10 µM) 0
CCc1cc2c(cc1N1CCC(N3CCOCC3)CC1)C(C)(C)c1[nH]c3cc(C#N)ccc3c1C2=O [Alectinib (Hydrochloride)] (2 µM) 0
FC(F)(c1ccc2ncccc2c1)c1nnc2ccc(-c3ccncc3)nn12 (10 µM) 0

Fetched by compound from the entries so far:
kinase-Nluc reporter destabilization hit call, inactive:
CCc1cc2c(cc1N1CCC(N3CCOCC3)CC1)C(C)(C)c1[nH]c3cc(C#N)ccc3c1C2=O [Alectinib (Hydrochloride)] (2 µM) 0
CCNc1nc(Nc2cc(F)c(C(=O)N3CCOCC3)cc2OC)ncc1C(F)(F)F [GNE-7915 (tosylate)] (10 µM) 0
